## Primary screen of a compound library

Protein sequences, listed by entry. Tags and fused reporters are not part of them. Residues count along the entry.
UniProt A4I591, 1-473: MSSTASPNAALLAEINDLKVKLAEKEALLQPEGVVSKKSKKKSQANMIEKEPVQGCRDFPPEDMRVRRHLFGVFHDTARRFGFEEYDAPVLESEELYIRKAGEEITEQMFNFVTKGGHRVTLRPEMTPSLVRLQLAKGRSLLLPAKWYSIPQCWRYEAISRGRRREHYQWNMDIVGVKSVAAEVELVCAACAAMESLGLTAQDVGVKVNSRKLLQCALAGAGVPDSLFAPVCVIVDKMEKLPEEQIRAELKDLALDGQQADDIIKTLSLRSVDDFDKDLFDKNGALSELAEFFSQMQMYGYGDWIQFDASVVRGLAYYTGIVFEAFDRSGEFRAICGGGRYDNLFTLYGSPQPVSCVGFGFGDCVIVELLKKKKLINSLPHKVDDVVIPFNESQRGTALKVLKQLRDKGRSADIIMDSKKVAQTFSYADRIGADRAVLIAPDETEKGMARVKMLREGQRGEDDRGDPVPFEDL
UniProt P9WPC5, whole entry: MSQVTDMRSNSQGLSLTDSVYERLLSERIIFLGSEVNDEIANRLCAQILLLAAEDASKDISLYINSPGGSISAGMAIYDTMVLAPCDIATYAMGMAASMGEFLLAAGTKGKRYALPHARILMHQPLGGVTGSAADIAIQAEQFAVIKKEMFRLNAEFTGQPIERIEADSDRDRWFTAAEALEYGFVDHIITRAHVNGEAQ
UniProt P9WPC3, whole entry partner: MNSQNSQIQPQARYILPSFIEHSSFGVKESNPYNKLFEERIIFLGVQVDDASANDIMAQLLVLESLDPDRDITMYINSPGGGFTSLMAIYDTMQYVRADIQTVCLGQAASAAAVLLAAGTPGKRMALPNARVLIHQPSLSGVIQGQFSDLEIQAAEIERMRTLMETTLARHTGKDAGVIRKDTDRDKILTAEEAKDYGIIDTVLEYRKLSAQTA

From ChEMBL document CHEMBL3988442, “University of Dundee, Small-Polar-MMV Screening Library” (2021).

A: 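Histidine-tRNA ligase, Leishmania infantum (UniProt A4I591). Enzyme assay of histidyl-tRNA synthetase; the read-out is not stated. Tested at 30 µM. The record gives no direction; compounds that gave an IC50 in retests scored well above the rest, so higher reads as stronger inhibition. The assay is labelled LdHisRS but filed under L. infantum. Of about 69,000 compounds tested this way, about 410 (0.6%) reached 50% or more in at least one test.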
B: 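Assay of Toxoplasma gondii numbers, read through their beta-galactosidase reporter with a colour substrate. Compounds at 10 µM. The record gives no direction; the compounds picked for IC50 retests had high values, so higher reads as fewer parasites. About 67,000 compounds were tested under these conditions; 0.38% (about 260) showed 50% or more at least once.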
C: 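ClpP1P2, Mycobacterium tuberculosis (UniProt P9WPC5 and UniProt P9WPC3). Protease assay of ClpP1P2, read by the AMC dye that it sets free. Compounds at 50 µM. Higher reads as stronger inhibition, judged from the few compounds that gave an IC50. Most other retested compounds had strongly negative values. About 69,000 compounds were tested under these conditions; 0.015% (about 10) showed 50% or more at least once.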
D: 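Whole-parasite assay of Trypanosoma brucei over 72 hours; the read-out is not stated. Concentration: 30 µM. Direction is inferred from retests: higher values go with stronger inhibition. Values scatter widely below zero; nearly all retest evidence comes from the higher of the two concentrations used. Size under these conditions: about 64,000 compounds, about 940 of them at 50% or above in at least one test.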
E: 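Cell assay of Leishmania donovani living inside macrophages; the read-out is not stated. Concentration: 30 µM. Higher reads as stronger inhibition (inferred: compounds with an IC50 in retests scored well above the rest). Size under these conditions: about 69,000 compounds, about 1,000 of them at 50% or above in at least one test.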

Values are the deposited “Percent Effect”, in %. The record does not define 0% and 100%; most values in the screen are far below 50% and negative numbers occur (in some assays of this library far below -100). Compounds were drawn at random from those tested, without regard to their results. Two or more numbers in one place are separate tests of the same structure; such repeats can differ widely. A dash means the value is not listed here; it may have been measured.

SMILES | A | B | C | D | E
O=C(O)C(F)(F)F.[H][C@@]12C[C@H](C(=O)N3CCCC3)CN(CC3CCOCC3)[C@]1([H])CCO2 | - | 11.97% | - | -45.79% | 17.82% & 4.725%
Cc1ccc(Cc2cnc(C3CCNCC3)cn2)cc1 | 5.208% | - | 6.757% | - | -
COCCNCc1cc2cc(C)cc(C)c2[nH]c1=O | 9.929% | 22.54% | -16.11% | -8.974% | 12.07%
O=C(O)c1ccc(N2CCC(Oc3cccc(F)c3)CC2)nc1 | 17.02% | -12.95% | 3.726% | -22.04% | 30.99%
CC(=O)N1CCc2ncc(CNC(=O)C3CCC3)n2CC1 | 5.556% | 12.7% | -16.81% | -30.57% | -12.3%
CC(=O)N1CCC(c2ncc3c(n2)CCN(C(=O)c2ccccc2)C3)C1 (centres unmarked) | 1.053% | -2.653% | -4.625% | -4.839% | 9.734% & 16.48%
CCN(Cc1c(C)nn(CC)c1C)S(=O)(=O)c1cnn(C)c1C | -8.642% | 7.872% | -36.52% | -21.37% | -11.23%
O=C(CSc1nnc(N2CCNCC2)s1)Nc1ccccc1 | 7.792% | - | 11.89% | - | -
O=C(O)C(F)(F)F.O=C(O)C(F)(F)F.[H][C@@]12CN(CCOC)C[C@]1([H])[C@@H](OC)CCN2Cc1ccsc1 | - | 1.109% | - | -5.234% | 27.99%
[H][C@@]12OCCN(C(=O)c3ccc(OC)c(F)c3)[C@@]1([H])CC[C@H]2OCC1CC1 | - | -0.1618% | - | -30.91% | 13.56%
COc1cc(N2C[C@H]3CCC[C@@H](CN(C)C4CC4)[C@H]3C2)ncn1 | -0.9174% | - | 2.602% | - | -
O=C(Nc1cnc(Oc2ccccc2)nc1)C1CC1 | 15.65% | 2.703% | -1.653% | 14.4% | 5.919%
Oc1cccc(CNCCC2CCCO2)c1 (centres unmarked) | 7.853% | 1.561% | 5.608% | 12.17% | 22.75%
CN(Cc1nnc(C2CC2)n1C)C1CCN(Cc2nccn2C)C1 (centres unmarked) | 8.929% | -7.042% | 2.007% | -11.2% | 20.02%
CNC(=O)[C@@H]1CN(C(=O)CCOC)C[C@H]1c1ccnc(N2CCCC2)n1 | 14.77% | - | -15.33% | - | -
CN(C)[C@@H]1CN(C(=O)Cc2ccccc2)[C@@H]2CCCO[C@H]12 | 2.703% | - | -1.291% | - | -
CN(C)C[C@@H]1C[C@@H]2CN(c3ncc(F)cn3)CC[C@@H]2N1C | 11.11% | - | -8.318% | - | -
CC(NC(=O)NCCCN(C)S(C)(=O)=O)c1ccncc1 (centres unmarked) | 21.62% | -0.9561% | 1.185% | -2.644% | 12.19%
Cn1nccc1C(=O)N1CCC(c2nnsc2S(C)(=O)=O)CC1 | 15.94% | -10.37% | -5.484% | -12.18% | 17.02%
CN1CC(=O)N(c2cccc(F)c2)CC12CCN(Cc1cnn(C)c1)C2 (centres unmarked) | 24.19% | - | -4.102% | - | -
CC(C)=CCN1CCN(C(=O)CSc2ccccn2)[C@H]2CS(=O)(=O)C[C@H]21 | 21.43% | - | -9.892% | - | -
O=C(O)C(F)(F)F.O=C(O)C(F)(F)F.[H][C@@]12CN(Cc3csc(C)n3)CCO[C@]1([H])CN(Cc1cccs1)C2 | - | 0.654% | - | 43.71% | 7.8%
Cc1cccc(N2CCC3(CCCC(=O)N3)CC2)n1.O=C(O)C(F)(F)F | - | -5.556% | - | -46.89% | 16.98%
CC(CNC(=O)c1ccc(Cl)cc1F)N1CCN(C)CC1 (centres unmarked) | 16.33% | -5.967% | -1.342% | 1.196% | -5.394%
CCc1nc(CNc2cc(Cl)ccc2OCC2CCCO2)no1 (centres unmarked) | 9.589% | 0.885% | -9.405% | -26.16% | 24.25%
COCCC(=O)N1CCOCC2(CCN(Cc3cccs3)C2)C1 (centres unmarked) | 13.89% | - | -14.93% | - | -
CCN(CC)C1(Cc2cc(-c3cccc(O)c3)on2)COC1 | 16.22% | 9.643% | -4.887% | 10.5% | 19.85%
O=C(N1CCOCC1)[C@@]12CCO[C@@H]1CCN(Cc1cccc(F)c1)C2 | 9.434% | - | -8.153% | - | -
O=C1N(CCCc2ccccc2)CCCC1(O)CNCc1ccccc1 (centres unmarked) | 26.42% | 1.01% | 3.606% | 8.2% | 54.86%
O=C1c2cnc(N3CCCCC3)nc2CN1c1ccc2c(c1)OCO2 | 1.77% | 2.448% | 6.431% | - | -36.76%
COCCNC(=O)[C@@H]1CCO[C@@H]2CCN(c3ccc(C)nn3)C[C@@H]21 | 17.65% | - | 8.138% | - | -
CN(Cc1cnn(C)c1)C(=O)NC1CCCC1 | 16.05% | 4.485% | -10.36% | -7.298% | 1.988%
Cc1cnn(CC2CCCCN2C(=O)c2cc(Cl)c[nH]2)c1 (centres unmarked) | 21.88% | -0.8899% | -4.208% | 7.067% | 14.74%
O=C(c1cccnc1)N1C[C@@H]2CC[C@H](C1)N(Cc1cc(F)ccc1F)C2 | 21.15% | - | 5.29% | - | -
O=C(O)C(F)(F)F.O=C(O)C(F)(F)F.[H][C@@]12CN(CCOC)C[C@]1([H])[C@@H](OC)CCN2Cc1cccs1 | - | 8.284% | - | -5.339% | 25.04%
Cc1cc(C2CCCN(CCNS(=O)(=O)c3ccccc3)C2)n[nH]1 (centres unmarked) | 19.64% | -27.07% | 1.541% | 50.6% | 9.494%
CN(Cc1nncn1C)c1nccc(N2CCC(O)CC2)n1 | 22.37% | 3.448% | -0.5679% | -30.03% | 25.91%
Cc1ccnn1-c1ccc(C(=O)N2CCN(c3cnccn3)CC2)cc1 | 11.69% | 3.898% | -6.307% | -45.57% | 14.91%
CCOCC1CN(CC2CC2)Cc2cnn(C)c21 (centres unmarked) | 14.71% | -13.52% | -9.418% | -10.07% | 0.2162%
Cn1cccc(NC(=O)NCc2cccc(CO)c2)c1=O | 54.95% | -2.575% | -1.365% | 28.01% | 12.62%
CSC1(CNC(=O)CCc2ccc(Cl)s2)CCOCC1 | 11.71% | -8.068% | -2.209% | 1.346% | -1.683%
Cc1noc(C)c1CNC(=O)N1CCN(Cc2cscn2)CC1 | 4% | -19.9% | 9.801% | 13.57% | 13.43%
CCOc1cc(CNC(C)c2ccc(F)cc2)ccn1 (centres unmarked) | -0.7937% | 8.612% | -1.586% | -37.58% | 18.21%
O=C(NCN1CCc2ccccc2C1)c1cnccn1 | 7.547% | 0.6911% | 1.654% | -46.04% | 0.6976%

For reference, 5 entries once more:

| SMILES | A | B | C | D | E |
|---|---|---|---|---|---|
| `CCOc1cc(CNC(C)c2ccc(F)cc2)ccn1` (centres unmarked) | -0.7937% | 8.612% | -1.586% | -37.58% | 18.21% |
| `COc1cc(N2C[C@H]3CCC[C@@H](CN(C)C4CC4)[C@H]3C2)ncn1` | -0.9174% | - | 2.602% | - | - |
| `O=C(O)C(F)(F)F.O=C(O)C(F)(F)F.[H][C@@]12CN(CCOC)C[C@]1([H])[C@@H](OC)CCN2Cc1ccsc1` | - | 1.109% | - | -5.234% | 27.99% |
| `O=C(O)C(F)(F)F.O=C(O)C(F)(F)F.[H][C@@]12CN(CCOC)C[C@]1([H])[C@@H](OC)CCN2Cc1cccs1` | - | 8.284% | - | -5.339% | 25.04% |
| `O=C1c2cnc(N3CCCCC3)nc2CN1c1ccc2c(c1)OCO2` | 1.77% | 2.448% | 6.431% | - | -36.76% |